Test results taken from publication PMC7771966, “Quantitative glycoproteomics reveals cellular substrate selectivity of the ER protein quality control sensors UGGT1 and UGGT2” (eLife, 2020).
No constants are given. Whether binding was seen depends on the method and setting. Binding seen in cells or lysates may run through a third protein. A yes stands for co-enrichment or nearness to the bait. Other partners may have been found.

Chains of the proteins cited; added tags and fusions are not shown. Lines headed by an entry give the natural chain unless they say otherwise; changes in a name come on top. Residues count along the entry.
UniProt P15253, residues 18-418: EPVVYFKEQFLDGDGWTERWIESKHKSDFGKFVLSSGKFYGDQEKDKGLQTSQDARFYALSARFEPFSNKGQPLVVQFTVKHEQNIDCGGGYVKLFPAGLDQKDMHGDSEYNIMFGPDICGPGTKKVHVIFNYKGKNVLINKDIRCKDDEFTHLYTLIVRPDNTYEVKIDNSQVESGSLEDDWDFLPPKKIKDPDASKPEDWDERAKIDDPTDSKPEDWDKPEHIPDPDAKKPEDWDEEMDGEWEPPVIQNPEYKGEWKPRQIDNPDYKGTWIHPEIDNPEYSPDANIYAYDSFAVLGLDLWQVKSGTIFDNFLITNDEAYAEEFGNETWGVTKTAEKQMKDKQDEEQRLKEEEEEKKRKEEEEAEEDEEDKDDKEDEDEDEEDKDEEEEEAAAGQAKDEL
UniProt Q04900, residues 24-197: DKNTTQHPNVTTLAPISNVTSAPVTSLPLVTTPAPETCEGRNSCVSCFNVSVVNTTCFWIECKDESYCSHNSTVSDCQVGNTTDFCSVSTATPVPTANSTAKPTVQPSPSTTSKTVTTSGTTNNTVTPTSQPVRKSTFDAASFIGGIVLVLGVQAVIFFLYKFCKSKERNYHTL
UniProt P05556: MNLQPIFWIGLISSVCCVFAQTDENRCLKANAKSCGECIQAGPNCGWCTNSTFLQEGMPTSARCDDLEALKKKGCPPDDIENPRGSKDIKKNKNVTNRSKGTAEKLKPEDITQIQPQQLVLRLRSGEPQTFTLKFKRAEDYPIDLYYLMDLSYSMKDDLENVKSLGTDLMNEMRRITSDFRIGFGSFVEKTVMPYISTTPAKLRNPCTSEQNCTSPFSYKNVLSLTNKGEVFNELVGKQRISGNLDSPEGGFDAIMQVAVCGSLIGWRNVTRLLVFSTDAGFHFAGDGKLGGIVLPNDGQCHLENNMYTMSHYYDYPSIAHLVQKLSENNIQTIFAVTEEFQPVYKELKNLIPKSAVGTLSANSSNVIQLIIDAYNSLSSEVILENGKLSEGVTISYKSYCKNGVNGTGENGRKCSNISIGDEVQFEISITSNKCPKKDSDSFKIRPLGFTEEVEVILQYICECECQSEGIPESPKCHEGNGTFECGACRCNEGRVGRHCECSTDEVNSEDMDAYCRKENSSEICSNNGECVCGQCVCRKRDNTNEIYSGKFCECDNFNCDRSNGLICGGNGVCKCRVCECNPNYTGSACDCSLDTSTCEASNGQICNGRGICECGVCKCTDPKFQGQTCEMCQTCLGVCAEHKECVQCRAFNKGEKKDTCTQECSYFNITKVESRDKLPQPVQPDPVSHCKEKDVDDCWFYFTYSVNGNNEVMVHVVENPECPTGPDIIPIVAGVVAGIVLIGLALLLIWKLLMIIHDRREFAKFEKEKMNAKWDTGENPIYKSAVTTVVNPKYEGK
UniProt P54802, residues 24-743: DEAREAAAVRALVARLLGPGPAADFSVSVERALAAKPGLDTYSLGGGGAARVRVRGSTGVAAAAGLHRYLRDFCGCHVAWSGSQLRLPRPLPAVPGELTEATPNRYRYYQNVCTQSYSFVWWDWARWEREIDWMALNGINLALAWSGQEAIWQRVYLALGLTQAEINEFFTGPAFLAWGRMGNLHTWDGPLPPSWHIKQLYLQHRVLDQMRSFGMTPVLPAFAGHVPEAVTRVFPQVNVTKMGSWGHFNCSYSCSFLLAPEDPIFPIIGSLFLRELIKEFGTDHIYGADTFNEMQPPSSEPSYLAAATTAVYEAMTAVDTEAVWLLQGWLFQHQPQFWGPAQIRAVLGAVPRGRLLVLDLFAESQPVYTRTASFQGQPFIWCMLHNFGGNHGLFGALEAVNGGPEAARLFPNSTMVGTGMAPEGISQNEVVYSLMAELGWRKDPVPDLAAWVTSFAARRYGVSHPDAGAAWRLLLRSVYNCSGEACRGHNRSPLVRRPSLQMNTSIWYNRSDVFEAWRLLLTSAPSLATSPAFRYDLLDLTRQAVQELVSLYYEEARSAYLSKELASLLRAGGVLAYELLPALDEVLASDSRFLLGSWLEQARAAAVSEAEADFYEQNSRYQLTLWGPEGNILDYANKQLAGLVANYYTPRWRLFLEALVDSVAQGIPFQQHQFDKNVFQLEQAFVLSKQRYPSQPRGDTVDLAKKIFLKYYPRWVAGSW
UniProt P11717, residues 41-2491: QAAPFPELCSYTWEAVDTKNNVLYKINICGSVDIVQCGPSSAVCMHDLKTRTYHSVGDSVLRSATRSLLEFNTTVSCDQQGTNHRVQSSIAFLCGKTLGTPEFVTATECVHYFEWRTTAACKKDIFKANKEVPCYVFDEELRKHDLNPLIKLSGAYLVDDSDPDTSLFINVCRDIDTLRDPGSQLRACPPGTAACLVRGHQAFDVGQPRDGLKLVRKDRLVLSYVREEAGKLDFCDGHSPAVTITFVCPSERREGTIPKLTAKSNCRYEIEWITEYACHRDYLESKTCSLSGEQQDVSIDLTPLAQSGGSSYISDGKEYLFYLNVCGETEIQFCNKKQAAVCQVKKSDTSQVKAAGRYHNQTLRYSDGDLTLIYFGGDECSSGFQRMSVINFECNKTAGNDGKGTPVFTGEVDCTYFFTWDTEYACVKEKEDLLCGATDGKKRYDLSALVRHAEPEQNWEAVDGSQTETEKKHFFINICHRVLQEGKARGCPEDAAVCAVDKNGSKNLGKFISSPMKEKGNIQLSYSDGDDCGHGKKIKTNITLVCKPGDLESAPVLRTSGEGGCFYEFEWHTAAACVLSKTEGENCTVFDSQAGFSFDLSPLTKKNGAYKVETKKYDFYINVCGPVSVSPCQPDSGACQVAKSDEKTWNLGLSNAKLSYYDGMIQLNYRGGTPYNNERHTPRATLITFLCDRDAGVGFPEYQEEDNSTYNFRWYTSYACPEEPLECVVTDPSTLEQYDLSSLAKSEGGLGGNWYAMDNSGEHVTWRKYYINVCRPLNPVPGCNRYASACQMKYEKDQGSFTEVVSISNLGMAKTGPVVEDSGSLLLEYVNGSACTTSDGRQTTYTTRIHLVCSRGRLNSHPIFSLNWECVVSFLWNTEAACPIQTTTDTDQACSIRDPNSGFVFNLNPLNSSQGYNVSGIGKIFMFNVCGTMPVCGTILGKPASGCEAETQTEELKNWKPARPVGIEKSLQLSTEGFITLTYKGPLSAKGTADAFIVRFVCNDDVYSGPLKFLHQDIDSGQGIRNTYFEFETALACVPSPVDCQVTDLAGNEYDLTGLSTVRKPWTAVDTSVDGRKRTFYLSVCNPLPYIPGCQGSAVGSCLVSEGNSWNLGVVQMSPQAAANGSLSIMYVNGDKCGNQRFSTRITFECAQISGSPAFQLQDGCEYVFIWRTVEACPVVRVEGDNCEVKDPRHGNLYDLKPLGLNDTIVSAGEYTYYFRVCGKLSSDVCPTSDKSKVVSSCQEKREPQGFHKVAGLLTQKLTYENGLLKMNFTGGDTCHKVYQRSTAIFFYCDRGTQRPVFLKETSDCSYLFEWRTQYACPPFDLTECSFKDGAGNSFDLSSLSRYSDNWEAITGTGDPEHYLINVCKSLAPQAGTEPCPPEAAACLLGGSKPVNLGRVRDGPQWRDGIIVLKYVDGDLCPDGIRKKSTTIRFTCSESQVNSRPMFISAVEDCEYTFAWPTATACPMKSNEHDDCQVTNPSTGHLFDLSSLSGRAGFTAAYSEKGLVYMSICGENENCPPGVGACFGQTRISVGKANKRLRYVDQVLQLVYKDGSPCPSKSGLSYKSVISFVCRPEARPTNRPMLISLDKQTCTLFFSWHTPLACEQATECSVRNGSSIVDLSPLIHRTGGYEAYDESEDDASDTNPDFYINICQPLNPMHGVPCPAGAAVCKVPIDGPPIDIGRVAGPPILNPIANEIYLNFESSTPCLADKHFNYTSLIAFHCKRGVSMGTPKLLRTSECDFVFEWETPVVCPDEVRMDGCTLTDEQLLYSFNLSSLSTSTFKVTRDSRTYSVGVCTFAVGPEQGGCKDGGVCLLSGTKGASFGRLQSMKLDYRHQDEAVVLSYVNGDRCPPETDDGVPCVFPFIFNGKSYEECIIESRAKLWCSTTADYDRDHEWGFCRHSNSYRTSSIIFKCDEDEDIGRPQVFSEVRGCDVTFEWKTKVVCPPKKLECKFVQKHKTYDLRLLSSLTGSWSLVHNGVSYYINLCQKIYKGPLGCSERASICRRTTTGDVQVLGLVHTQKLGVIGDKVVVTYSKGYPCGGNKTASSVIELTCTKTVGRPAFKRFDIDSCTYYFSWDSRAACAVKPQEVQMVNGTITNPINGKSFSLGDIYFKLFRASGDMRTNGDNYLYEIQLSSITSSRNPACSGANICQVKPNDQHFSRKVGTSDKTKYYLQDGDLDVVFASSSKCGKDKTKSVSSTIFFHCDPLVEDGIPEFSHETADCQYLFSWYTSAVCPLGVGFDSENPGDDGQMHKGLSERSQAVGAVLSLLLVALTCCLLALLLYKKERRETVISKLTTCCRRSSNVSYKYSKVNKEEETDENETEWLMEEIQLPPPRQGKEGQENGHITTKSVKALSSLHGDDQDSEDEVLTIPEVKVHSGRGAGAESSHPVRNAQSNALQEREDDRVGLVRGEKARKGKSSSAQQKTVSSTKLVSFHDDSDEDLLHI
UniProt P08069, residues 31-1367: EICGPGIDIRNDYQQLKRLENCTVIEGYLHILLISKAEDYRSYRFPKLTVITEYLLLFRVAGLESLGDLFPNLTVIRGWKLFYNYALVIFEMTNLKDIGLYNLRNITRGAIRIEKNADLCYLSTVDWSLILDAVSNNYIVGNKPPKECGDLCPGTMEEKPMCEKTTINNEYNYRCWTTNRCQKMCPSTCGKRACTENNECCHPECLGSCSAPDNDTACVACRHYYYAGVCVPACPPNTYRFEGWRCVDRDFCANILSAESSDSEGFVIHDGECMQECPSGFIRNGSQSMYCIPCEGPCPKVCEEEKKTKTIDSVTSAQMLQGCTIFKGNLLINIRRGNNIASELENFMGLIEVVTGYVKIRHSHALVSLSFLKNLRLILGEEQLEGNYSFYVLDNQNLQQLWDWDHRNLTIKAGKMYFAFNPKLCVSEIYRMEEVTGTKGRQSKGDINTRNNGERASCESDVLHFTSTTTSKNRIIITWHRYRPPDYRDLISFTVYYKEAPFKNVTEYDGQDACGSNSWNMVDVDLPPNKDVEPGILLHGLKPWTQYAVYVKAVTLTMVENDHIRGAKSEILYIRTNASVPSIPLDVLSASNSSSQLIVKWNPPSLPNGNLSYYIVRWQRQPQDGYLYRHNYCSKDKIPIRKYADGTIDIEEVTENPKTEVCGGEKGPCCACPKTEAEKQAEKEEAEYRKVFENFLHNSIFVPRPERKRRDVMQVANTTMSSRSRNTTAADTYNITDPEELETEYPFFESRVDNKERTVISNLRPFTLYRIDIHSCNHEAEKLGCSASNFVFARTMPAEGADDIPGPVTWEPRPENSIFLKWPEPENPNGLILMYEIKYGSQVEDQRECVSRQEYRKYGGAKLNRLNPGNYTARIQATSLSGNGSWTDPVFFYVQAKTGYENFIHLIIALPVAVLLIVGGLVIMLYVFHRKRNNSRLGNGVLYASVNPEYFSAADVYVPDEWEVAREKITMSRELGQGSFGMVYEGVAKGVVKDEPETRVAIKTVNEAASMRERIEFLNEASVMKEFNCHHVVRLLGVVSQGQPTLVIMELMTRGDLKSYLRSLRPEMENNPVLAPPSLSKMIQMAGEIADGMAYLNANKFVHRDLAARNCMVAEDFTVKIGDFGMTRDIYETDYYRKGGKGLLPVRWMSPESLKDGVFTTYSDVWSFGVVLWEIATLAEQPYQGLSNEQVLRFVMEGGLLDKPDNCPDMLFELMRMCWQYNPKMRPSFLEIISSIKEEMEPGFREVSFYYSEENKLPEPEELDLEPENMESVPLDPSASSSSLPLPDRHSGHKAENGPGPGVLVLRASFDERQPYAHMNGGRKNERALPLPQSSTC

B1: Prosaposin (protein, UniProt P07602 17-524)
chain: GPVLGLKECTRGSAVWCQNVKTASDCGAVKHCLQTVWNKPTVKSLPCDICKDVVTAAGDMLKDNATEEEILVYLEKTCDWLPKPNMSASCKEIVDSYLPVILDIIKGEMSRPGEVCSALNLCESLQKHLAELNHQKQLESNKIPELDMTEVVAPFMANIPLLLYPQDGPRSKPQPKDNGDVCQDCIQMVTDIQTAVRTNSTFVQALVEHVKEECDRLGPGMADICKNYISQYSEIAIQMMMHMQPKEICALVGFCDEVKEMPMQTLVPAKVASKNVIPALELVEPIKKHEVPAKSDVYCEVCEFLVKEVTKLIDNNKTEKEILDAFDKMCSKLPKSLSEECQEVVDTYGSSILSILLEEVSPELVCSMLHLCSGTRLPALTVHVTQPKDGGFCEVCKKLVGYLDRNLEKNSTKQEILAALEKGCSFLPDPYQKQCDQFVAEYEPVLIEILVEVMDPSFVCLKIGACPSAHKPLLGTEKCIWGPSYWCQNTETAAQCNAVEHCKRHVWN
modifications: monoglucosylated N-glycans (reglucosylated by the UGGTs; sites not stated)
B2: ectonucleotide pyrophosphatase/phosphodiesterase family member 1 (ENPP1) (enzyme, human (endogenous in HEK293-EBNA1-6E), UniProt P22413 1-925, looked up)
chain: MERDGCAGGGSRGGEGGRAPREGPAGNGRDRGRSHAAEAPGDPQAAASLLAPMDVGEEPLEKAARARTAKDPNTYKVLSLVLSVCVLTTILGCIFGLKPSCAKEVKSCKGRCFERTFGNCRCDAACVELGNCCLDYQETCIEPEHIWTCNKFRCGEKRLTRSLCACSDDCKDKGDCCINYSSVCQGEKSWVEEPCESINEPQCPAGFETPPTLLFSLDGFRAEYLHTWGGLLPVISKLKKCGTYTKNMRPVYPTKTFPNHYSIVTGLYPESHGIIDNKMYDPKMNASFSLKSKEKFNPEWYKGEPIWVTAKYQGLKSGTFFWPGSDVEINGIFPDIYKMYNGSVPFEERILAVLQWLQLPKDERPHFYTLYLEEPDSSGHSYGPVSSEVIKALQRVDGMVGMLMDGLKELNLHRCLNLILISDHGMEQGSCKKYIYLNKYLGDVKNIKVIYGPAARLRPSDVPDKYYSFNYEGIARNLSCREPNQHFKPYLKHFLPKRLHFAKSDRIEPLTFYLDPQWQLALNPSERKYCGSGFHGSDNVFSNMQALFVGYGPGFKHGIEADTFENIEVYNLMCDLLNLTPAPNNGTHGSLNHLLKNPVYTPKHPKEVHPLVQCPFTRNPRDNLGCSCNPSILPIEDFQTQFNLTVAEEKIIKHETLPYGRPRVLQKENTICLLSQHQFMSGYSQDILMPLWTSYTVDRNDSFSTEDFSNCLYQDFRIPLSPVHKCSFYKNNTKVSYGFLSPPQLNKNSSGIYSEALLTTNIVPMYQSFQVIWRYFHDTLLRKYAEERNGVNVVSGPVFDFDYDGRCDSLENLRQKRRVIRNQEILIPTHFFIVLTSCKDTSQTPLHCENLDTLAFILPHRTDNSESCVHGKHDSSWVEELLMLHRARITDVEHITGLSFYQQRKEPVSDILKLKTHLPTFSQED
modifications: monoglucosylated N-glycans (reglucosylated by the UGGTs; sites not stated)
notes: ectonucleotide pyrophosphatase/phosphodiesterase family member 1, human, endogenous; source: endogenous, lysate of CRISPR-edited HEK293-EBNA1-6E cells (ALG6-/- background), DNJ treated
B3: scavenger receptor class B member 1 (SR-BI) (receptor, UniProt Q8WTV0 1-552)
chain: MGCSAKARWAAGALGVAGLLCAVLGAVMIVMVPSLIKQQVLKNVRIDPSSLSFNMWKEIPIPFYLSVYFFDVMNPSEILKGEKPQVRERGPYVYREFRHKSNITFNNNDTVSFLEYRTFQFQPSKSHGSESDYIVMPNILVLGAAVMMENKPMTLKLIMTLAFTTLGERAFMNRTVGEIMWGYKDPLVNLINKYFPGMFPFKDKFGLFAELNNSDSGLFTVFTGVQNISRIHLVDKWNGLSKVDFWHSDQCNMINGTSGQMWPPFMTPESSLEFYSPEACRSMKLMYKESGVFEGIPTYRFVAPKTLFANGSIYPPNEGFCPCLESGIQNVSTCRFSAPLFLSHPHFLNADPVLAEAVTGLHPNQEAHSLFLDIHPVTGIPMNCSVKLQLSLYMKSVAGIGQTGKIEPVVLPLLWFAESGAMEGETLHTFYTQLVLMPKVMHYAQYVLLALGCVLLLVPVICQIRSQVGAGQRAARADSHSLACWGKGASDRTLWPTAAWSPPPAAVLRLCRSGSGHCWGLRSTLASFACRVATTLPVLEGLGPSLGGGTGS
modifications: monoglucosylated N-glycans (reglucosylated by UGGT1; sites not stated)
B4: alpha-galactosidase A (enzyme, UniProt P06280 32-429)
chain: LDNGLARTPTMGWLHWERFMCNLDCQEEPDSCISEKLFMEMAELMVSEGWKDAGYEYLCIDDCWMAPQRDSEGRLQADPQRFPHGIRQLANYVHSKGLKLGIYADVGNKTCAGFPGSFGYYDIDAQTFADWGVDLLKFDGCYCDSLENLADGYKHMSLALNRTGRSIVYSCEWPLYMWPFQKPNYTEIRQYCNHWRNFADIDDSWKSIKSILDWTSFNQERIVDVAGPGGWNDPDMLVIGNFGLSWNQQVTQMALWAIMAAPLFMSNDLRHISPQAKALLQDKDVIAINQDPLGKQGYQLRQGDNFEVWERPLSGLAWAVAMINRQEIGGPRSYTIAVASLGKGVACNPACFITQLLPVKRKLGFYEWTSRLRSHINPTGTVLLQLENTMQMSLKDLL
modifications: monoglucosylated N-glycans (reglucosylated by the UGGTs; sites not stated)
B5: FUCA1 (enzyme, UniProt P04066 32-466)
chain: QPPRRYTPDWPSLDSRPLPAWFDEAKFGVFIHWGVFSVPAWGSEWFWWHWQGEGRPQYQRFMRDNYPPGFSYADFGPQFTARFFHPEEWADLFQAAGAKYVVLTTKHHEGFTNWPSPVSWNWNSKDVGPHRDLVGELGTALRKRNIRYGLYHSLLEWFHPLYLLDKKNGFKTQHFVSAKTMPELYDLVNSYKPDLIWSDGEWECPDTYWNSTNFLSWLYNDSPVKDEVVVNDRWGQNCSCHHGGYYNCEDKFKPQSLPDHKWEMCTSIDKFSWGYRRDMALSDVTEESEIISELVQTVSLGGNYLLNIGPTKDGLIVPIFQERLLAVGKWLSINGEAIYASKPWRVQWEKNTTSVWYTSKGSAVYAIFLHWPENGVLNLESPITTSTTKITMLGIQGDLKWSTDPDKGLFISLPQLPPSAVPAEFAWTIKLTGVK
modifications: monoglucosylated N-glycans (reglucosylated by the UGGTs; sites not stated)
B6: arylsulfatase A (enzyme, UniProt P15289 19-507)
chain: RPPNIVLIFADDLGYGDLGCYGHPSSTTPNLDQLAAGGLRFTDFYVPVSLCTPSRAALLTGRLPVRMGMYPGVLVPSSRGGLPLEEVTVAEVLAARGYLTGMAGKWHLGVGPEGAFLPPHQGFHRFLGIPYSHDQGPCQNLTCFPPATPCDGGCDQGLVPIPLLANLSVEAQPPWLPGLEARYMAFAHDLMADAQRQDRPFFLYYASHHTHYPQFSGQSFAERSGRGPFGDSLMELDAAVGTLMTAIGDLGLLEETLVIFTADNGPETMRMSRGGCSGLLRCGKGTTYEGGVREPALAFWPGHIAPGVTHELASSLDLLPTLAALAGAPLPNVTLDGFDLSPLLLGTGKSPRQSLFFYPSYPDEVRGVFAVRTGKYKAHFFTQGSAHSDTTADPACHASSSLTAHEPPLLYDLSKDPGENYNLLGGVAGATPEVLQALKQLQLLKAQLDAAVTFGPSQVARGEDPALQICCHPGCTPRPACCHCPDPHA
modifications: monoglucosylated N-glycans (reglucosylated by UGGT2; sites not stated)
B7: α-N-acetylgalactosaminidase (enzyme, UniProt P17050 18-411)
chain: LDNGLLQTPPMGWLAWERFRCNINCDEDPKNCISEQLFMEMADRMAQDGWRDMGYTYLNIDDCWIGGRDASGRLMPDPKRFPHGIPFLADYVHSLGLKLGIYADMGNFTCMGYPGTTLDKVVQDAQTFAEWKVDMLKLDGCFSTPEERAQGYPKMAAALNATGRPIAFSCSWPAYEGGLPPRVNYSLLADICNLWRNYDDIQDSWWSVLSILNWFVEHQDILQPVAGPGHWNDPDMLLIGNFGLSLEQSRAQMALWTVLAAPLLMSTDLRTISAQNMDILQNPLMIKINQDPLGIQGRRIHKEKSLIEVYMRPLSNKASALVFFSCRTDMPYRYHSSLGQLNFTGSVIYEAQDVYSGDIISGLRDETNFTVIINPSGVVMWYLYPIKNLEMSQQ
modifications: monoglucosylated N-glycans (reglucosylated by UGGT2; sites not stated)

Each molecule was assayed against glutathione S-transferase-calreticulin (GST-CRT) (UniProt P15253) (assay: affinity purification with mass spectrometry; GST-CRT or GST-CRT-Y109A (100 ug) on glutathione beads, 14 h at 4 C with pre-cleared lysate (20 mM MES, 100 mM NaCl, 30 mM Tris pH 7.5, 0.5% Triton X-100) of ALG6-/-, ALG6/UGGT1-/- or ALG6/UGGT2-/- HEK293-EBNA1-6E cells treated with 500 uM DNJ for 1 h; TMT labelling, PNGaseF; hits at threefold or more GST-CRT over GST-CRT-Y109A; only the target purified).

binding, binds:
B1
B2
B3
B4
B5
B6
B7

Molecular target: glutathione S-transferase-calreticulin (GST-CRT) (UniProt P15253)
Assay: as above
Remark: another data set of the same source

binding, binds:
CD164 (from UniProt Q04900 24-197)
Integrin β-1 (from UniProt P05556 21-798)
NAGLU (from UniProt P54802 24-743) (enzyme)
NPC1 (from UniProt O15118 23-1278)
Nuclear pore membrane glycoprotein 210 (NUP210) (from UniProt Q8TEM1 27-1887)
cation-independent mannose-6-phosphate receptor (CI-M6PR) (from UniProt P11717 41-2491)
insulin-like growth factor type one receptor (IGF-1R) (from UniProt P08069 31-1367)
